No constants are given. Whether binding was seen depends on the method and setting. Binding seen in cells or lysates may run through a third protein. A yes stands for co-enrichment or nearness to the bait. Other partners may have been found.
Target: Heat shock transcription factor-1 (HSF-1) (human (endogenous in HCT-116)) (UniProt Q00613)
Experiment: affinity purification with mass spectrometry; HSF-1 immunoprecipitates from HCT-116 control cells and cells treated with 50 uM vitexin; 10% SDS-PAGE, silver stain; bands excised, trypsin digest, MALDI-TOF peptide mass fingerprinting (MASCOT)

Chains of the proteins cited; added tags and fusions are not shown.
UniProt Q00613: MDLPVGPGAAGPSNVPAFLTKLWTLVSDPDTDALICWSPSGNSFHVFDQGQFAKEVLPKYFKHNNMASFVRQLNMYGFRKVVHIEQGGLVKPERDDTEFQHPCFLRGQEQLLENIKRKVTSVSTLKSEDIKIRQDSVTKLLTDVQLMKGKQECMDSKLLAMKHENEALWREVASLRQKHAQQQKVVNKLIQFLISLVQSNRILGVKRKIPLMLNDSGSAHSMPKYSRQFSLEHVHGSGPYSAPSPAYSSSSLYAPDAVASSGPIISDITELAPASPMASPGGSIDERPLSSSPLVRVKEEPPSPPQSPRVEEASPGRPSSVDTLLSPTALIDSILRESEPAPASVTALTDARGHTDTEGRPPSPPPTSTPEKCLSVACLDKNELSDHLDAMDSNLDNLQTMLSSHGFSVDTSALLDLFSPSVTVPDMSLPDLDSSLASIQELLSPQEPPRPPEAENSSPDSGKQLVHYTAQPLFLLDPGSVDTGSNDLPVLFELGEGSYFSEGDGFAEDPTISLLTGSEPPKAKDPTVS

binding: binds
B1: Apolipoprotein L1 (ApoL1) (protein, UniProt O14791 28-398)
chain: EEAGARVQQNVPSGTDTGDPQSKPLGDWAAGTMDPESSIFIEDAIKYFKEKVSTQNLLLLLTDNEAWNGFVAAAELPRNEADELRKALDNLARQMIMKDKNWHDKGQQYRNWFLKEFPRLKSELEDNIRRLRALADGVQKVHKGTTIANVVSGSLSISSGILTLVGMGLAPFTEGGSLVLLEPGMELGITAALTGITSSTMDYGKKWWTQAQAHDLVIKSLDKLKEVREFLGENISNFLSLAGNTYQLTRGIGKDIRALRRARANLQSVPHASASRPRVTEPISAESGEQVERVNEPSILEMSRGVKLTDVAPVSFFLVLDVVYLVYESKHLHEGAKSETAEELKKVAQELEEKLNILNNNYKILQADQEL

Source: publication PMC5762521
